Assay results reported in patent publication US20240309109A1.
No constants are given. Whether binding was seen depends on the method and setting. Some entries that bind do so weakly or less than the wild type.

Protein sequences, listed by entry. Tags and fused reporters are not part of them. Lines headed by an entry give the natural chain unless they say otherwise; changes in a name come on top. Chains listed by the source or under a name are the forms on record and can include a tag or linker.
Rhesus CD38 on PBMCs (Lymphocytes) (H9ZFL1, form named): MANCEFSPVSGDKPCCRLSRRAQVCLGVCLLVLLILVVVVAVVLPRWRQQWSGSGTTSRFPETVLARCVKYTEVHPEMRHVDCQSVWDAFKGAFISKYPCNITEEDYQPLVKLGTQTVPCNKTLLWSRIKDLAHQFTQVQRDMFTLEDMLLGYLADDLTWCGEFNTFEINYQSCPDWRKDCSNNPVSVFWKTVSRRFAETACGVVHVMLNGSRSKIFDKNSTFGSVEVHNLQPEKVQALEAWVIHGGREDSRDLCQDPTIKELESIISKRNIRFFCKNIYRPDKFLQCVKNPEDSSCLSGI

Tests used:
[1] = molecular target: Rhesus CD38 on PBMCs (Lymphocytes) (Macaca mulatta) (UniProt H9ZFL1); assay: FACS, Fab format, rhesus lymphocytes (PBMC fraction); column taken from the order of panel A [Continued]
[2] = molecular target: Rhesus CD38 on Erythrocytes (Macaca mulatta) (UniProt H9ZFL1); assay: FACS, Fab format, rhesus erythrocytes; column taken from the order of panel A [Continued]
[3] = molecular target: Rhesus CD38 on Erythrocytes (Macaca mulatta) (UniProt H9ZFL1); assay: FACS, IgG1 format, erythrocytes; column printed 'Rhesus' on the sheet, the legend says cynomolgus
[4] = molecular target: Rhesus CD38 on PBMCs (Lymphocytes) (Macaca mulatta) (UniProt H9ZFL1); assay: FACS, IgG1 format, lymphocytes (PBMC fraction); column printed 'Rhesus' on the sheet, the legend says cynomolgus
[5] = molecular target: Rhesus CD38 on Erythrocytes (Macaca mulatta) (UniProt H9ZFL1); assay: FACS, Fab format, rhesus erythrocytes
[6] = molecular target: Rhesus CD38 on PBMCs (Lymphocytes) (Macaca mulatta) (UniProt H9ZFL1); assay: FACS, Fab format, rhesus lymphocytes (PBMC fraction)

B1: MOR03088 Fab (Fab, V domains shown)
VH: QVQLVESGGGLVQPGGSLRLSCAASGFTFSSYAMNWVRQAPGKGLEWVSGISSWGSSTYYADSVKGRFTISRDNSKNTLYLQMNSLRAEDTAVYYCAREDGSYMTDYFAYWGQGTLVTVSS
VL: DIELTQPPSVSVAPGQTARISCSGDNIGHYYVSWYQQKPGQAPVLVIYSDSNRPSGIPERFSGSNSGNTATLTISGTQAEDEADYYCQSYNGTYVFGGGTKLTVLG
**Q.** With B1 as the binder, how does the binding [1] read?
**A.** binds

**Q.** And the binding [2]?
**A.** binds

B2: MOR03087 IgG1 (antibody, V domains shown)
VH: QVQLVESGGGLVQPGGSLRLSCAASGFTFSSYYMNWVRQAPGKGLEWVSGISGDPSNTYYADSVKGRFTISRDNSKNTLYLQMNSLRAEDTAVYYCARDLPLVYTGFAYWGQGTLVTVSS
VL: DIELTQPPSVSVAPGQTARISCSGDNLRHYYVYWYQQKPGQAPVLVIYGDSKRPSGIPERFSGSNSGNTATLTISGTQAEDEADYYCQTYTGGASLVFGGGTKLTVLG
**Q.** For B2, which binding [3] is on record?
**A.** binds

**Q.** What about the binding [4] of the same binder?
**A.** binds

B3: MOR03087 Fab (Fab, V domains shown)
VH: B2 VH
VL: B2 VL
**Q.** B3 was tested. Which binding [5] did it give?
**A.** binds

**Q.** And the binding [6]?
**A.** binds
